# The other results are listed elsewhere or left out.
# What was measured:
# Test in all cases: glycan array binding signal (z-score within array); higher = stronger binding
# Conditions in all cases: glycan notation: IUPAC condensed, linker removed
# [1] = molecular target: Fuc(a1-2)Gal
# In short: (§1)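 The binding signal is a Z-score computed within each array. Data were drawn from 3228 arrays in the Consortium for Functional Glycomics database, restricted to those with a known protein sequence. Scores were averaged over arrays of the same protein sequence at different concentrations or buffers, and over linkers, and negative values can be taken as non-binding.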
# [2] = molecular target: Fuc(a1-2)Gal(b1-3)GalNAc
# In short: as §1
# [3] = molecular target: Fuc(a1-2)Gal(b1-3)GalNAc(a1-3)[Fuc(a1-2)]Gal(b1-4)Glc
# In short: as §1
# [4] = molecular target: Fuc(a1-2)Gal(b1-3)GalNAc(a1-3)[Fuc(a1-2)]Gal(b1-4)GlcNAc
# In short: as §1
# [5] = molecular target: Fuc(a1-2)Gal(b1-3)GalNAc(b1-3)Gal
# In short: as §1
# [6] = molecular target: Fuc(a1-2)Gal(b1-3)GalNAc(b1-3)Gal(a1-4)Gal(b1-4)Glc
# In short: as §1
# [7] = molecular target: Fuc(a1-2)Gal(b1-3)GalNAc(b1-4)[Neu5Ac(a2-3)]Gal(b1-4)Glc
# In short: as §1
# [8] = molecular target: Fuc(a1-2)Gal(b1-3)GlcNAc
# In short: as §1
# [9] = molecular target: Fuc(a1-2)Gal(b1-3)GlcNAc(b1-2)Man(a1-3)[Fuc(a1-2)Gal(b1-3)GlcNAc(b1-2)Man(a1-6)]Man(b1-4)GlcNAc(b1-4)GlcNAc
# In short: as §1
# [10] = molecular target: Fuc(a1-2)Gal(b1-3)GlcNAc(b1-2)Man(a1-3)[Fuc(a1-2)Gal(b1-3)GlcNAc(b1-2)Man(a1-6)]Man(b1-4)GlcNAc(b1-4)[Fuc(a1-6)]GlcNAc
# In short: as §1
# [11] = molecular target: Fuc(a1-2)Gal(b1-3)GlcNAc(b1-3)Gal(b1-4)Glc
# In short: as §1
# [12] = molecular target: Fuc(a1-2)Gal(b1-3)GlcNAc(b1-3)GalNAc
# In short: as §1
# [13] = molecular target: Fuc(a1-2)Gal(b1-3)GlcNAc(b1-3)[Fuc(a1-2)Gal(b1-3)GlcNAc(b1-6)]GalNAc
# In short: as §1
# [14] = molecular target: Fuc(a1-2)Gal(b1-3)GlcNAc(b1-3)[Gal(b1-4)GlcNAc(b1-6)]Gal(b1-4)Glc
# In short: as §1
# [15] = molecular target: Fuc(a1-2)Gal(b1-3)GlcNAc(b1-3)[Neu5Ac(a2-6)Gal(b1-4)GlcNAc(b1-6)]Gal(b1-4)Glc
# In short: as §1
# [16] = molecular target: Fuc(a1-2)Gal(b1-3)GlcNAc6S
# In short: as §1
# [17] = molecular target: Fuc(a1-2)Gal(b1-3)[Fuc(a1-4)]GlcNAc
# In short: as §1
# [18] = molecular target: Fuc(a1-2)Gal(b1-3)[Fuc(a1-4)]GlcNAc(b1-2)Man(a1-3)[Fuc(a1-2)Gal(b1-3)[Fuc(a1-4)]GlcNAc(b1-2)Man(a1-3)]Man(b1-4)GlcNAc(b1-4)GlcNAc
# In short: as §1
# [19] = molecular target: Fuc(a1-2)Gal(b1-3)[Fuc(a1-4)]GlcNAc(b1-2)Man(a1-3)[Fuc(a1-2)Gal(b1-3)[Fuc(a1-4)]GlcNAc(b1-2)Man(a1-6)]Man(b1-4)GlcNAc(b1-4)[Fuc(a1-6)]GlcNAc(b1-4)[Fuc(a1-6)]GlcNAc
# In short: as §1
# [20] = molecular target: Fuc(a1-2)Gal(b1-3)[Fuc(a1-4)]GlcNAc(b1-3)[Fuc(a1-3)[Gal(b1-4)]GlcNAc(b1-6)]Gal(b1-4)Glc
# In short: as §1
# [21] = molecular target: Fuc(a1-2)Gal(b1-3)[Fuc(a1-4)]GlcNAc(b1-3)[Gal(b1-4)GlcNAc(b1-6)]Gal(b1-4)Glc
# In short: as §1
# [22] = molecular target: Fuc(a1-2)Gal(b1-4)Fuc(a1-3)]GlcNAc(b1-2)Man(a1-3)[Fuc(a1-2)Gal(b1-4)[Fuc(a1-3)]GlcNAc(b1-2)Man(a1-6)]Man(b1-4)GlcNAc(b1-4)GlcNAc
# In short: as §1
# [23] = molecular target: Fuc(a1-2)Gal(b1-4)Glc
# In short: as §1
# [24] = molecular target: Fuc(a1-2)Gal(b1-4)Glc6S
# In short: as §1
# [25] = molecular target: Fuc(a1-2)Gal(b1-4)GlcNAc
# In short: as §1
# [26] = molecular target: Fuc(a1-2)Gal(b1-4)GlcNAc(b1-2)Man
# In short: as §1
# [27] = molecular target: Fuc(a1-2)Gal(b1-4)GlcNAc(b1-2)Man(a1-3)[Fuc(a1-2)Gal(b1-4)GlcNAc(b1-2)Man(a1-6)]Man(b1-4)GlcNAc(b1-4)GlcNAc
# In short: as §1
# [28] = molecular target: Fuc(a1-2)Gal(b1-4)GlcNAc(b1-2)Man(a1-3)[Fuc(a1-2)Gal(b1-4)GlcNAc(b1-2)Man(a1-6)]Man(b1-4)GlcNAc(b1-4)[Fuc(a1-6)]GlcNAc
# In short: as §1
# [29] = molecular target: Fuc(a1-2)Gal(b1-4)GlcNAc(b1-2)[Fuc(a1-2)Gal(b1-4)GlcNAc(b1-4)]Man(a1-3)[Fuc(a1-2)Gal(b1-4)GlcNAc(b1-2)Man(a1-6)]Man(b1-4)GlcNAc(b1-4)GlcNAc
# In short: as §1
# [30] = molecular target: Fuc(a1-2)Gal(b1-4)GlcNAc(b1-3)Gal(b1-4)GlcNAc
# In short: as §1
binder,measurement,setting,value
"CBP21 (Serratia marcescens), O83009 (protein) MNKTSRTLLSLGLLSAAMFGVSQQANAHGYVESPASRAYQCKLQLNTQCGSVQYEPQSVEGLKGFPQAGPADGHIASADKSTFFELDQQTPTRWNKLNLKTGPNSFTWKLTARHSTTSWRYFITKPNWDASQPLTRASFDLTPFCQFNDGGAIPAAQVTHQCNIPADRSGSHVILAVWDIADTANAFYQAIDVNLSK",glycan array binding signal (z-score),[1],-0.237
same,glycan array binding signal (z-score),[2],-1.01
same,glycan array binding signal (z-score),[3],-1.36
same,glycan array binding signal (z-score),[4],0.386
same,glycan array binding signal (z-score),[5],-0.226
same,glycan array binding signal (z-score),[6],-0.103
same,glycan array binding signal (z-score),[7],-0.018
same,glycan array binding signal (z-score),[8],0.853
same,glycan array binding signal (z-score),[9],4.3
same,glycan array binding signal (z-score),[10],-0.556
same,glycan array binding signal (z-score),[11],-0.192
same,glycan array binding signal (z-score),[12],2.22
same,glycan array binding signal (z-score),[13],1.43
same,glycan array binding signal (z-score),[14],-1.36
same,glycan array binding signal (z-score),[15],-0.594
same,glycan array binding signal (z-score),[16],0.841
same,glycan array binding signal (z-score),[17],-1.12
same,glycan array binding signal (z-score),[18],0.146
same,glycan array binding signal (z-score),[19],0.424
same,glycan array binding signal (z-score),[20],0.881
same,glycan array binding signal (z-score),[21],0.781
same,glycan array binding signal (z-score),[22],-0.715
same,glycan array binding signal (z-score),[23],-0.946
same,glycan array binding signal (z-score),[24],-0.903
same,glycan array binding signal (z-score),[25],-0.589
same,glycan array binding signal (z-score),[26],0.189
same,glycan array binding signal (z-score),[27],-0.809
same,glycan array binding signal (z-score),[28],-0.607
same,glycan array binding signal (z-score),[29],-0.493
same,glycan array binding signal (z-score),[30],-1.37

# Reference: the supplement of paper PMC8728848
